Source: PubChem BioAssay AID1671190 (National Center for Advancing Translational Sciences (NCATS), 2021)
Where “and” joins values, the source holds several entries; their conditions need not be identical. Equal entries are not always repeated. Among all 580,000 compounds or so, about 6,100 (1.1%) were called active. This list was built around the results that the source calls inconclusive (neither active nor inactive); the mix of calls is not that of the screen. Calls come from the whole dose curve; as a rule, active = well fitted inhibition curve with a large enough effect; inconclusive = small, poorly fitted or top-dose-only effect, or another doubt; inactive = no such curve, though single readings can be large or run the other way. Where the call is inconclusive, the potency comes from a doubtful curve fit. Some compounds were tested as several samples or in several runs, with calls that do not always agree.

Protein sequences, listed by entry. Tags and fused reporters are not part of them. Lines headed by an entry give the natural chain unless they say otherwise; changes in a name come on top.
UniProt P18054: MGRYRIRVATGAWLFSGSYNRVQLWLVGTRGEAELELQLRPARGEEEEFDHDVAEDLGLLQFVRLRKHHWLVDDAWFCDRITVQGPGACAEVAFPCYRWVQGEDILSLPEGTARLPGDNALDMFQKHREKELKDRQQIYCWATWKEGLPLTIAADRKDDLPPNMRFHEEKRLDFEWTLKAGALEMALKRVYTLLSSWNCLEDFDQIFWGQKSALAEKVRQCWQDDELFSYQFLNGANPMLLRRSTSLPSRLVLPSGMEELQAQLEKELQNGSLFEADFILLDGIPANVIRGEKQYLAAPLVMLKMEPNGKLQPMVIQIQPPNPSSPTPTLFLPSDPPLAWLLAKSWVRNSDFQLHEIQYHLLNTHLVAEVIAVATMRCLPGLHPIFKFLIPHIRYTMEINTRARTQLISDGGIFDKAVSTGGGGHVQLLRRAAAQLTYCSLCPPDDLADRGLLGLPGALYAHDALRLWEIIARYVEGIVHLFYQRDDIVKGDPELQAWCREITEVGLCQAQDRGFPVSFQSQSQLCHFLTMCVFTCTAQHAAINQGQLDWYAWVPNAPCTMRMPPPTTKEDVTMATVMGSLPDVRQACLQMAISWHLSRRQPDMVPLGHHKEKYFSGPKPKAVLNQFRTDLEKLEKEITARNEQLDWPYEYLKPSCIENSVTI

The molecules below were run against Polyunsaturated fatty acid lipoxygenase ALOX12 (Homo sapiens) (UniProt P18054) (assay: Primary qHTS assay for inhibitors of human arachidonate 12S-lipoxygenase (ALOX12): Round 2). Settings: purified 12hLO, xylenol orange hydroperoxide absorbance; activity change, negative = inhibition: at 108 µM (top of the series) unless noted.
Method in brief: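 Purified human 12hLO at 150 nM in 25 mM Hepes, 0.01% Triton X-100, pH 7.0, preincubated 15 min at room temperature with compound. Reaction started with 40 uM arachidonic acid, 30 min at room temperature. Hydroperoxide measured by Fe-xylenol orange, 573/405 nm absorbance ratio.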
% is set by controls: 0 for no effect and ±100 for the full control effect; potency is the fitted concentration of half-maximal effect.

Row | SMILES | Potency | activity change, negative = inhibition
1 | CCCCOc1ccc(C(=O)N/C(=C/c2cccc([N+](=O)[O-])c2)C(=O)O)cc1 | inconclusive: 100 µM [inhibitor, partial curve, poor fit] | 
2 | O=C(NC1CCCCCC1)C1(Cc2nc3ccccc3s2)CCCC1 | inconclusive: 79.4 µM [inhibitor, partial curve, poor fit] | 
3 | COc1ccc(C2/C=C\CN(C(=O)c3ccc(C)cc3)CC(=O)N2Cc2ccc(F)cc2)cc1 (configuration not stated) | inconclusive: 28.2 µM [inhibitor, single point] | 
4 | O=C(CSc1ccc(-c2ccco2)nn1)NCc1ccccc1 |  | inactive: -22%
5 | CCOC(=O)C1CCCN(Cc2cccs2)C1 (configuration not stated) | inconclusive: 3.16 µM [inhibitor, full curve, poor fit] | 
6 | CCN1CCN(c2nc3ccccc3nc2C(C#N)S(=O)(=O)c2ccccc2)CC1 (configuration not stated) | inconclusive: 44.7 µM [inhibitor, partial curve, poor fit] | 
7 | CC1(c2ccc3c(c2)CCC3)NC(=O)N(Cc2coc(-c3cccs3)n2)C1=O (configuration not stated) | inconclusive: 44.7 µM [inhibitor, partial curve] | 
8 | COc1ccc(NC(=O)/C=C\C(=O)N(c2ccc(C(C)C)cc2)C(C(=O)NCc2ccco2)c2ccc(C)cc2)cc1 (configuration not stated) |  | inactive: -21.6%
9 | CNc1ncc(C(=O)c2ccc(Cl)cc2)s1 | inconclusive: 39.8 µM [inhibitor, partial curve, poor fit] | 
10 | CC(C)(C)c1ccc(C(=O)NNC(=S)Nc2ccccc2)cc1 | inconclusive: 39.8 µM [inhibitor, partial curve, poor fit] | 
11 | CCON1C(=O)C(C)(C)N(OCC)C(=O)C1(C)C | inconclusive: 112 µM [inhibitor, single point] | 
12 | COc1cc2c(cc1OC)/C(=C/C(=O)c1ccc(C)cc1)NCC2 |  | inactive: 86.1%
13 | Cc1ccc(CNC(C)C23CC4CC(CC(C4)C2)C3)o1 (configuration not stated) |  | inactive: -4.51%
14 | NC(=Nc1ccccc1)NC(=O)c1nc(Cl)c(N)nc1N | inconclusive: 126 µM [inhibitor, partial curve, poor fit] | 
15 | CCOc1cc(C(=O)NC(CC(=O)OC)c2cccs2)ccc1OC (configuration not stated) | inconclusive: 2.24 µM [inhibitor, full curve, poor fit] | 
16 | CCOc1cc(/C=C2\CCCc3c2nc2ccccc2c3C(=O)O)ccc1OC | inconclusive: 44.7 µM [inhibitor, partial curve, poor fit] | 
17 | CCCC(=O)Nc1ccc2nn(-c3ccc(OC)cc3)nc2c1 |  | inactive: -9.87%
18 | CC(=O)NC1CCN(C(=O)C2CCN(c3oc(-c4ccco4)nc3C#N)CC2)CC1 | inconclusive: 44.7 µM [inhibitor, partial curve, poor fit] | 
19 | COc1cc(C)c(-c2nc(CN3CCCC(CN)C3)c(C)o2)cc1C (configuration not stated) | inconclusive: 1.12 µM [inhibitor, full curve, poor fit] | 
20 | COc1cc(C2CC(c3ccccc3)=NN2c2ccccc2)ccc1OCC(=O)O (configuration not stated) | inconclusive: 44.7 µM [inhibitor, partial curve] | 
21 | COc1cc([N+](=O)[O-])ccc1NC(=S)NNC(=O)CCC(=O)Nc1ccccc1Cl | inconclusive: 44.7 µM [inhibitor, partial curve, poor fit] | 

Some of the entries above, set out differently.
Row	SMILES	Potency	activity change, negative = inhibition
3	COc1ccc(C2/C=C\CN(C(=O)c3ccc(C)cc3)CC(=O)N2Cc2ccc(F)cc2)cc1 (configuration not stated)	inconclusive: 28.2 µM [inhibitor, single point]	
6	CCN1CCN(c2nc3ccccc3nc2C(C#N)S(=O)(=O)c2ccccc2)CC1 (configuration not stated)	inconclusive: 44.7 µM [inhibitor, partial curve, poor fit]	
9	CNc1ncc(C(=O)c2ccc(Cl)cc2)s1	inconclusive: 39.8 µM [inhibitor, partial curve, poor fit]	

Remaining list, next part:

Row | SMILES | Potency | activity change, negative = inhibition
22 | O=C(Cc1cccs1)NC1CCN(c2cc(C(F)(F)F)ncn2)CC1 |  | inactive: 1.92%
23 | O=C(Nc1cnc2ccccc2c1)N1CCOCC1 | inconclusive: 20 µM [inhibitor, partial curve, poor fit] | 
24 | Clc1ccc(C[n+]2csc3ccccc32)cc1 | inconclusive: 44.7 µM [inhibitor, partial curve, poor fit] | 
25 | CCOC(=O)c1cccc(NC(=O)c2ncoc2-c2ccco2)c1 | inconclusive: 44.7 µM [inhibitor, partial curve] | 
26 | CC(C)Nc1ncnc2c1CN(C1CCCNCC1)C(=O)CN2C (configuration not stated) | inconclusive: 12.6 µM [inhibitor, full curve] | 
27 | Cc1nc(-c2ccc(C#N)cc2)cs1 | inactive and active: 31.6 µM | 
28 | Cn1ccc2c(N3c4ccccc4CCc4ccccc43)cc3c(c21)C1CCC3O1 (configuration not stated) | inconclusive: 7.94 µM [inhibitor, full curve, poor fit] | 
29 | Cc1ccc([N+](=O)[O-])cc1CN1CCN(c2ncc(Cc3ccccc3)cn2)CC1 | inconclusive: 15.8 µM [inhibitor, partial curve] | 
30 | CC(=O)NCCNc1nc(-c2cccc(C#N)c2)nc2ccccc12 | inconclusive: 10 µM [inhibitor, partial curve, poor fit] | 
31 | Cc1cc(OCc2nn[nH]n2)c2c(-c3ccccc3)cc(=O)oc2c1 | inconclusive: 44.7 µM [inhibitor, partial curve, poor fit] | 
32 | Cc1ccccc1-n1c(SCC(=O)NC(C)c2cc3ccccc3o2)nnc1N1CCOCC1 (configuration not stated) |  | inactive: -1.48%
33 | COC(=O)C1=C(C)N=C2SC(C)C(=O)N2C1c1cccs1 (configuration not stated) | inconclusive: 31.6 µM [inhibitor, single point] | 
34 | O=C(COC(=O)c1ccc2ncsc2c1)Nc1cccc(Cl)c1 |  | inactive: 3.94%
35 | O=C1NC(=Nc2ccccc2Cl)S/C1=C\c1cccc([N+](=O)[O-])c1 | inconclusive: 31.6 µM [inhibitor, partial curve, poor fit] | 
36 | NC(=O)C(c1ccccn1)c1ncc(C(F)(F)F)cc1Cl (configuration not stated) | inconclusive: 3.55 µM [inhibitor, full curve, poor fit] | 
37 | O=C(Nc1cccc(F)c1)Nc1c(NC2CCCCC2)c2ccccc2oc1=O | inconclusive: 20 µM [inhibitor, single point] | 
38 | CSC1=N/C(=C\c2cc(C(C)(C)C)c(O)c(C(C)(C)C)c2)C(=O)S1 |  | inactive: -66.6%
39 | CCn1ncc(Br)c1C(=O)Nc1ccn(C23CC4CC(CC(C4)C2)C3)n1 |  | inactive: -10.4%
40 | O=c1nc2s/c(=C\c3ccco3)c(=O)n2nc1Cc1ccc(F)cc1 |  | inactive: 0%
41 | CCCN(CC(=O)Nc1ccccc1C)CC(=O)Nc1ccc(Br)cc1F | inconclusive: 17.8 µM [inhibitor, full curve, poor fit] | 
42 | CC(C)c1ccc(S(=O)(=O)/N=C2\C=C(NS(=O)(=O)c3ccccc3)C(=O)c3ccccc32)cc1 | active: 35.5 µM | 
